Amino acid sequences for entries named in this document (tags omitted). A change or cut given only in a name is not applied to a line headed by its entry.
UniProt Q9UNA4: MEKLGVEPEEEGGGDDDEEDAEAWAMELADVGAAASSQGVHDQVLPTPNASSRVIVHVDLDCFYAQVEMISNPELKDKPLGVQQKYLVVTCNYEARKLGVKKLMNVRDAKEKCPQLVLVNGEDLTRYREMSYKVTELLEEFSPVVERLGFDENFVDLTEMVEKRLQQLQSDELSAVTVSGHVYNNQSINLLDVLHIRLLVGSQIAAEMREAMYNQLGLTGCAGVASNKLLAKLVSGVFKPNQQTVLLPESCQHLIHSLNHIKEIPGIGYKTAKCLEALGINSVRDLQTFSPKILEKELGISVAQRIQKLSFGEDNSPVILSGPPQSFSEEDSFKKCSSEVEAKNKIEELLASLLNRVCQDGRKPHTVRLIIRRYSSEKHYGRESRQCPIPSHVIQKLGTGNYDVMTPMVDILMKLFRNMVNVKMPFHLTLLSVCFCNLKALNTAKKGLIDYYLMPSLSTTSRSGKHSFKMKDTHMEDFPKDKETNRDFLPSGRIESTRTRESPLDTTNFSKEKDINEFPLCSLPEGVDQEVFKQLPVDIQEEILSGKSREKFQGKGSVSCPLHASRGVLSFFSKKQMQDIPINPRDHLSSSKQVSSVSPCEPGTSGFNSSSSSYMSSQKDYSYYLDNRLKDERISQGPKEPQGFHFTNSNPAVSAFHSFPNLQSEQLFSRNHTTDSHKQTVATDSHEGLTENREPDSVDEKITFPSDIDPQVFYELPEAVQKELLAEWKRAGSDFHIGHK

Values joined by “and” are separate entries in the source; they are usually repeats but may differ in a detail not shown here. Equal entries are not always repeated. Out of some 390,000 compounds screened, about 4,000 (1%) were called active. This list was built around the results that the source calls inconclusive (neither active nor inactive); the mix of calls is not that of the screen. Calls come from the whole dose curve; as a rule, active = well fitted inhibition curve with a large enough effect; inconclusive = small, poorly fitted or top-dose-only effect, or another doubt; inactive = no such curve, though single readings can be large or run the other way. Potencies beside an inconclusive call are fits to weak or partial responses and may not hold up.
These molecules were tested against DNA polymerase iota (Homo sapiens) (UniProt Q9UNA4) (assay: qHTS for Inhibitors of Polymerase Iota). Conditions: Pol iota fluorescent replication assay, 10 min; series mostly up to 115 µM.
Method in brief: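 Fluorescent replication assay read twice, at 0 min and 10 min after adding 50 nM (final) substrate. Enzyme (10 nM) and compounds were first incubated 15 min at room temperature; enzyme-free buffer wells were negative controls.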
For Cc1ccc(C)n1-c1ccc(-n2cnnn2)cc1, the Potency was inconclusive: 15.8 µM [inhibitor, partial curve, poor fit]. CCC(CO)Oc1cc(NCc2ccc(F)cc2)c2ncn(C(C)C)c2c1 (stereo unspecified) was tested, and the Potency was inconclusive: 20 µM [inhibitor, partial curve, poor fit]. With CCn1cc(/C=C(\NC(=O)c2ccc(OC)c(OC)c2)C(=O)NCCCn2ccnc2)c2ccccc21 the Potency was inconclusive: 89.1 µM [inhibitor, partial curve, poor fit]. In the case of CC1=C(C(=O)OCc2ccccc2)C(c2ccc(Br)cc2)NC(=O)N1CCCC(=O)O (stereo unspecified), the Potency is reported as inconclusive: 14.1 µM [inhibitor, partial curve, poor fit]. In the case of Nc1c(C(=O)Nc2cccc(C(=O)O)c2)sc2nc3c(cc12)CCCC3, the Potency is reported as “inactive”. Cc1ccccc1C(=O)O was tested, and the Potency was inconclusive: 25.1 µM [inhibitor, partial curve, poor fit]. For CC(C)(C)OC(=O)N1CCC(c2c(C(=O)N3CCN(c4ncccn4)CC3)cnn2-c2ccc(F)cc2)CC1, the Potency was “inactive”. CCc1cc(=O)oc2cc(OC(C)C(=O)NCC3CCC(C(=O)O)CC3)c(Cl)cc12 (stereo unspecified) was tested, and the Potency was inconclusive: 100 µM [inhibitor, partial curve, poor fit]. In the case of COc1ccc(NC(=O)Nc2nnc(-c3ccco3)s2)cc1, the Potency is reported as inconclusive: 89.1 µM [inhibitor, single point]. In the case of N#C/C(=C\c1ccc(O)c(O)c1)C(=O)NCCc1ccccc1, the Potency is reported as inconclusive: 89.1 µM [inhibitor, single point] and inconclusive: 20 µM [inhibitor, single point]. With Cc1cc(C)c(C)c(S(=O)(=O)N2CCC(C(=O)N3CCCC3)CC2)c1C the Potency was inconclusive: 79.4 µM [inhibitor, partial curve]. For N#CC1(C#N)CC(C=O)=C(N)C1(C#N)CC(=O)C12CC3CC(CC(C3)C1)C2 (stereo unspecified), the Potency was inconclusive: 112 µM [inhibitor, single point]. Cc1ccc(-n2nc3ccc(NC(=O)c4ccco4)cc3n2)cc1 was tested, and the Potency was inconclusive: 17.8 µM [inhibitor, full curve, poor fit]. In the case of COc1cn(CC(=O)Nc2cccc(C)c2)c(CN2CCCCC2)cc1=O, the Potency is reported as “inactive”. With COc1ccc(/C=C2\CCCC3C2=NN(C(=O)CSc2ncn[nH]2)C3c2ccc(OC)cc2)cc1 (stereo unspecified) the Potency was “inactive”. Oc1ccc(C2=Nn3c(nnc3-c3ccco3)SC2)cc1O was tested, and the Potency was active: 2.24 µM. C[C@]12C[C@H](O)[C@@H]3c4ccc(O)cc4CCC3[C@@H]1CCC2=O (stereo partly specified) was tested, and the Potency was inconclusive: 89.1 µM [inhibitor, single point]. For COc1cccc(/C=C(\C#N)c2nc3ccccc3c(=O)[nH]2)c1OC, the Potency was inconclusive: 20 µM [inhibitor, partial curve]. With N#CCC(=O)Nc1ccc(C(=O)OCC(=O)NC(=O)NCc2ccco2)cc1 the Potency was inconclusive: 22.4 µM [inhibitor, partial curve, poor fit]. CC(=O)c1sc2nsc(SCCN3CCCC3)c2c1N was tested, and the Potency was active: 17.8 µM. With Cc1ccc(CSc2cc(C)[nH]c(=O)n2)cc1 the Potency was inconclusive: 10 µM [inhibitor, full curve, poor fit]. In the case of O=C(/C=C/c1ccc(OCc2ccccc2)c(OCc2ccccc2)c1)c1cccnc1, the Potency is reported as inconclusive: 2.82 µM [inhibitor, full curve, poor fit]. CCOc1ccc(Cl)cc1S(=O)(=O)n1nnc2ccccc21 was tested, and the Potency was inconclusive: 35.5 µM [inhibitor, partial curve, poor fit]. With O=C(c1ccc2c(=O)n(-c3ccccc3)c(=O)[nH]c2c1)N1CCN(Cc2cccs2)CC1 the Potency was “inactive”. With COc1ccc(C)cc1NC(=O)n1ncc2c(C)cccc21 the Potency was inconclusive: 25.1 µM [inhibitor, partial curve, poor fit]. For COc1ccc(OC)c(NC(=O)c2ccc3c(c2)c(C)c(C)n3Cc2ccc(F)cc2)c1, the Potency was “inactive”. In the case of O=C(O)CCc1ccc(-c2cccs2)n1NC(=O)c1ccc(O)cc1, the Potency is reported as inconclusive: 50.1 µM [inhibitor, partial curve]. In the case of CC1(c2ccc3c(c2)OCCO3)NC(=O)N(CC(=O)Nc2ccccc2F)C1=O (stereo unspecified), the Potency is reported as “inactive”. With CC(C)(C)C(=O)N1CCN(c2ccc(NC(=O)c3ccc([N+](=O)[O-])o3)cc2)CC1 the Potency was inconclusive: 79.4 µM [inhibitor, partial curve, poor fit]. For COc1ccc(-c2csc(NC(=S)NC(=O)c3cccs3)n2)cc1Br, the Potency was “inactive”. In the case of COc1ccc(-n2c(SCC#N)nc3c(sc(=S)n3-c3ccccc3)c2=O)c(OC)c1, the Potency is reported as inconclusive: 15.8 µM [inhibitor, partial curve, poor fit]. For COc1ccc2nc(-n3c(C)ccc3C)sc2c1, the Potency was “inactive”. In the case of CCCSCCCNC(=O)Cn1nc(CC)n2c(cc3c(OC)cccc32)c1=O, the Potency is reported as inconclusive: 5.62 µM [inhibitor, partial curve, poor fit]. O=C(C[n+]1cccc2ccccc21)c1ccc([N+](=O)[O-])cc1 was tested, and the Potency was “inactive”. In the case of COc1ccc(NC(=O)Cn2nnc(C(=O)NCc3ccccc3Cl)c2N)cc1Cl, the Potency is reported as inconclusive: 89.1 µM [inhibitor, partial curve]. In the case of COc1ccc(CCn2c3c(c(=O)[nH]c2=O)C(NC(=O)c2ccccc2)(C(F)(F)F)C(=O)N3)cc1OC (stereo unspecified), the Potency is reported as “inactive”. For COc1cc(/C=N/Nc2ccc(C(=O)O)cc2)ccc1O, the Potency was inconclusive: 5.01 µM [inhibitor, full curve, poor fit]. CCCCn1c(/C=C/c2ccco2)nc2ccccc21 was tested, and the Potency was inconclusive: 112 µM [inhibitor, partial curve, poor fit]. In the case of O=C(CCN1C(=O)COc2ccccc21)NCCN1CCN(c2cccc(Cl)c2)CC1, the Potency is reported as inconclusive: 79.4 µM [inhibitor, single point]. With Cc1ccc(OCC(=O)N2C(C)CCCC2C)c([N+](=O)[O-])n1 (stereo unspecified) the Potency was “inactive”. For COC(=O)c1sccc1NC(=O)CSc1ccccc1NS(=O)(=O)c1cc(Cl)ccc1Cl, the Potency was inconclusive: 25.1 µM [inhibitor, partial curve, poor fit].
Potency is the fitted concentration of half-maximal effect.
